Source: US6602849 (dated 2003)

Test: general procedure: solution-phase peptide synthesis; Fmoc-amino acid OSu/OAt active esters, Fmoc-Val-F; DCC/HOBt or EDC/HOBt for cycl
Settings: lyophilized from 0.5% HCl; for step yield: late stage modification step; for cyclisation yield: cyclisation step

Substance “1-((2-Ethoxy-2-oxo)ethyl)-2-(1-(S)-((Fmoc-Trp-D-Trp-Lys(Boc)-Tyr(OBzl))-amino)-2-phenylethyl)-(3-methoxyphenyl)-imidazole” has a step yield of 80%.
For “2-(1-(S)-((Fmoc-Trp-D-Trp-Lys(Cbz)-Tyr(Bzl))-amino)-2-phenylethyl)-4-(3-methoxyphenyl)-1-(triphenylmethyl)-imidazole”, the isolated yield (whole synthesis) was 57%.
“Cyclo[Trp-D-Trp-Lys(Boc)-Tyr(Bzl)-PheΨ(4-(3-methoxyphenyl)imidazole)-Gly]” showed a cyclisation yield of 46%.
“Cyclo[Trp-D-Trp-Lys(Cbz)-Val-PheΨ(4-(3-methoxyphenyl)imidazole)-Gly]” gave a cyclisation yield of 71%.
Substance “Cyclo[Trp-D-Trp-Lys-Val-PheΨ(4-(3-hydroxyphenyl)imidazole)-Gly]” has a step yield of 29%.
Work on “Cyclo[Trp-D-Trp-Lys-Val-PheΨ(4-(3-methoxyphenyl)imidazole)-Gly]” yielded a step yield of 14%.
Work on “Cyclo[Tyr(OBzl)-D-Trp-Lys(Cbz)-Val-PheΨ(4-(3-methoxyphenyl)imidazole)-Gly]” yielded a cyclisation yield (from intermediate 1d) of 48%.
“Cyclo[Tyr(OBzl)-D-Trp-Lys-Val-PheΨ(4-(3-methoxyphenyl)imidazole)-Gly]” showed a step yield of 21%.
Work on “Cyclo[Tyr-D-Trp-Lys-Val-PheΨ(4-(3-Methoxyphenyl)imidazole)-Gly]” yielded a step yield of 29%.
